Test results taken from PubChem BioAssay AID912 (National Center for Advancing Translational Sciences (NCATS), 2007).
What follows is the remainder of the data, with few or none of the hits. Records with an inconclusive call do not appear. The source made the active and inactive calls. Calls come from the whole dose curve.

Assay: qHTS Assay for Anthrax Lethal Toxin Internalization; note: nearly all actives have a fitted effect of over 50% in size
Conditions: Cells, FRET ratio (460/530)
% is set by controls: 0 for no effect and ±100 for the full control effect.

## CN1[C@@H]2CC[C@H]1CC(OC(=O)[C@@H](O)c1ccccc1)C2 (some centres not stated)
At 3.58 µM (top of the series)
  activity change, negative = inhibition: inactive: -1.8%
At 40 µM (top of the series)
  activity change, negative = inhibition: inactive: 10.6%
